Test results taken from paper PMC9095502.

Protein sequences, listed by entry. Tags and fused reporters are not part of them.
UniProt P11275: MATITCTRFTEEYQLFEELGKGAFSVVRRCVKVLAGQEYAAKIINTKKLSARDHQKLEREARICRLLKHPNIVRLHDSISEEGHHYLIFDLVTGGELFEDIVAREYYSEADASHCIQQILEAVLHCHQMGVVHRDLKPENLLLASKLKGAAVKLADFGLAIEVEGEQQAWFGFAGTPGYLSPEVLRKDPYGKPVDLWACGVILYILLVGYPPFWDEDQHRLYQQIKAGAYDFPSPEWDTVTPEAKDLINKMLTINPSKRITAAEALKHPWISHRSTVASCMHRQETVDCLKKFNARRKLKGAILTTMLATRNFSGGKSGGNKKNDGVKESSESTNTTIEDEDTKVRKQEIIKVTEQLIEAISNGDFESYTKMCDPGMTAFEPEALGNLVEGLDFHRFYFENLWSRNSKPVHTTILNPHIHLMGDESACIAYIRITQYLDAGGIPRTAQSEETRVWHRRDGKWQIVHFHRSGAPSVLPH
UniProt P63018: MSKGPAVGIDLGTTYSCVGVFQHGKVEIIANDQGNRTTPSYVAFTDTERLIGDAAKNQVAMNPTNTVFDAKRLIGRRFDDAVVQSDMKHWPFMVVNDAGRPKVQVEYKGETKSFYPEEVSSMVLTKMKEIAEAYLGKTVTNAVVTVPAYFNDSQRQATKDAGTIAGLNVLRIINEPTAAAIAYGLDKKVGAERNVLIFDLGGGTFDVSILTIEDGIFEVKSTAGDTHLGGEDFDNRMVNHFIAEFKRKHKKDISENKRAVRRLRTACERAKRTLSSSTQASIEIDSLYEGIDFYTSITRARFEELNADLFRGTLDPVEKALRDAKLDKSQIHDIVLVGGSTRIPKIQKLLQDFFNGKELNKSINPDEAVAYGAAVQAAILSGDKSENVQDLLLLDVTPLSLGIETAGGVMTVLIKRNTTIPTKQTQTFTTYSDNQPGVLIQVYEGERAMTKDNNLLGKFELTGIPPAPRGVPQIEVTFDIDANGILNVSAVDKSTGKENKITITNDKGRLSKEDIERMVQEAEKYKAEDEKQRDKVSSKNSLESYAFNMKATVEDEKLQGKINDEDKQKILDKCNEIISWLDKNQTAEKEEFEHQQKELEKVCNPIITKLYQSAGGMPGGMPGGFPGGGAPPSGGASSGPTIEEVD
UniProt P21707: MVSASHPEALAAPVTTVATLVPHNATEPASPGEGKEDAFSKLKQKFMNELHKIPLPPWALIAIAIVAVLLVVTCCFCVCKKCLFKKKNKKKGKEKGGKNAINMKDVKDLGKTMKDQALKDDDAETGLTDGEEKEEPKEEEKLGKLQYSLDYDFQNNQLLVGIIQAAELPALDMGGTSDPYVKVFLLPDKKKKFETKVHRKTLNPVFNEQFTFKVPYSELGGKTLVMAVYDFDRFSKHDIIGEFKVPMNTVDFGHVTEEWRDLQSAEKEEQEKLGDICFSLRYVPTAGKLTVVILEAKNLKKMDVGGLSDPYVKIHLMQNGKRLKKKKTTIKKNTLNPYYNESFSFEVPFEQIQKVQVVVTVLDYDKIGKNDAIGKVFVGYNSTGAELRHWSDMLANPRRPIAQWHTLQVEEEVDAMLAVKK
UniProt P61765: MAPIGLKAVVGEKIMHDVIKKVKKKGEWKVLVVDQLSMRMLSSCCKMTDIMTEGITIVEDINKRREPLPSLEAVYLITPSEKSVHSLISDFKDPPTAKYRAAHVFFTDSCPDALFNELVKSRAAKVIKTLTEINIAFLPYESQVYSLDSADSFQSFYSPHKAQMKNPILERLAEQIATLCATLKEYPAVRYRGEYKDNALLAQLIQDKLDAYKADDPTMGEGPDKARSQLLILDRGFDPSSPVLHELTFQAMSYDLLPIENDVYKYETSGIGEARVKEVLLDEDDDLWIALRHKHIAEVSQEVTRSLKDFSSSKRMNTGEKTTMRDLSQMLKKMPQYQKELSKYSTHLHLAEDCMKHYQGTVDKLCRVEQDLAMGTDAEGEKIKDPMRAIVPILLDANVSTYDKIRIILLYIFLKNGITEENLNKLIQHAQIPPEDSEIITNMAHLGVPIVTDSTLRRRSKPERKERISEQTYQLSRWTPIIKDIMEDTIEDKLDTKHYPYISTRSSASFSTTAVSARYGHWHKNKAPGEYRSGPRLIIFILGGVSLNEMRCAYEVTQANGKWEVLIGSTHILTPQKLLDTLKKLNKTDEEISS

B1: dynamin-1 (endogenous, rat cortical neurons) (protein, UniProt P21575 1-864)
chain: MGNRGMEDLIPLVNRLQDAFSAIGQNADLDLPQIAVVGGQSAGKSSVLENFVGRDFLPRGSGIVTRRPLVLQLVNSTTEYAEFLHCKGKKFTDFEEVRLEIEAETDRVTGTNKGISPVPINLRVYSPHVLNLTLVDLPGMTKVPVGDQPPDIEFQIRDMLMQFVTKENCLILAVSPANSDLANSDALKIAKEVDPQGQRTIGVITKLDLMDEGTDARDVLENKLLPLRRGYIGVVNRSQKDIDGKKDITAALAAERKFFLSHPSYRHLADRMGTPYLQKVLNQQLTNHIRDTLPGLRNKLQSQLLSIEKEVDEYKNFRPDDPARKTKALLQMVQQFAVDFEKRIEGSGDQIDTYELSGGARINRIFHERFPFELVKMEFDEKELRREISYAIKNIHGIRTGLFTPDLAFEATVKKQVQKLKEPSIKCVDMVVSELTSTIRKCSEKLQQYPRLREEMERIVTTHIREREGRTKEQVMLLIDIELAYMNTNHEDFIGFANAQQRSNQMNKKKTSGNQDEILVIRKGWLTINNIGIMKGGSKEYWFVLTAENLSWYKDDEEKEKKYMLSVDNLKLRDVEKGFMSSKHIFALFNTEQRNVYKDYRQLELACETQEEVDSWKASFLRAGVYPERVGDKEKASETEENGSDSFMHSMDPQLERQVETIRNLVDSYMAIVNKTVRDLMPKTIMHLMINNTKEFIFSELLANLYSCGDQNTLMEESAEQAQRRDEMLRMYHALKEALSIIGDINTTTVSTPMPPPVDDSWLQVQSVPAGRRSPTSSPTPQRRAPAVPPARPGSRGPAPGPPPAGSALGGAPPVPSRPGASPDPFGPPPQVPSRPNRAPPGVPSRSGQASPSRPESPRPPFDL
B2: synaptogyrin-1 (endogenous, rat cortical neurons) (protein, UniProt Q62876 1-234)
chain: MEGGAYGAGKAGGAFDPYTLVRQPHTILRVVSWVFSIVVFGSIVNEGYLNNPEEEEEFCIYNRNPNACSYGVTVGVLAFLTCLVYLALDVYFPQISSVKDRKKAVLSDIGVSAFWAFFWFVGFCFLANQWQVSKPKDNPLNEGTDAARAAIAFSFFSIFTWAGQAVLAFQRYQIGADSALFSQDYMDPSQDSSMPYAPYVEPSAGSDPTGMGGTYQHPANAFDAEPQGYQSQGY
B3: syntaxin-7 (endogenous, rat cortical neurons) (protein, UniProt O70257 1-261)
chain: MSYTPGIGGDPAQLAQRISSNIQKITQCSAEIQRTLNQLGTPQDTPELRQQLQQEQQYTNQLAKETDKYIKEFGFLPTTPSEQRQRKIQKDRLVAEFTTALTNFQKVQRQAAEREKEFVARVRASSRVSGGFPEDSSKEKNFVSWESQTQPQVQVQDEEITEDDLRLIHERESSIRQLEADIMDINEIFKDLGMMIHEQGDVIDSIEANVESAEVHVQQANQQLSRAANYQRKSRKTLCIIILILVVGIVIIFFIVWGLKG

Assays:
DGKθ-GFP-APEX2 [1] = biological target: T1, DGKθ-GFP-APEX2 (UniProt P52824); test: proximity labelling; DGKθ-GFP-APEX2 electroporated into rat cortical neurons (DIV21); biotin-phenol 500 μM 30 min, H2O2 1 mM 1 min, with or without 50 mM KCl for 30 s; lysates trypsinised, biotinylated peptides enriched on streptavidin beads, LC-MS/MS; three experiments
T1 sequence: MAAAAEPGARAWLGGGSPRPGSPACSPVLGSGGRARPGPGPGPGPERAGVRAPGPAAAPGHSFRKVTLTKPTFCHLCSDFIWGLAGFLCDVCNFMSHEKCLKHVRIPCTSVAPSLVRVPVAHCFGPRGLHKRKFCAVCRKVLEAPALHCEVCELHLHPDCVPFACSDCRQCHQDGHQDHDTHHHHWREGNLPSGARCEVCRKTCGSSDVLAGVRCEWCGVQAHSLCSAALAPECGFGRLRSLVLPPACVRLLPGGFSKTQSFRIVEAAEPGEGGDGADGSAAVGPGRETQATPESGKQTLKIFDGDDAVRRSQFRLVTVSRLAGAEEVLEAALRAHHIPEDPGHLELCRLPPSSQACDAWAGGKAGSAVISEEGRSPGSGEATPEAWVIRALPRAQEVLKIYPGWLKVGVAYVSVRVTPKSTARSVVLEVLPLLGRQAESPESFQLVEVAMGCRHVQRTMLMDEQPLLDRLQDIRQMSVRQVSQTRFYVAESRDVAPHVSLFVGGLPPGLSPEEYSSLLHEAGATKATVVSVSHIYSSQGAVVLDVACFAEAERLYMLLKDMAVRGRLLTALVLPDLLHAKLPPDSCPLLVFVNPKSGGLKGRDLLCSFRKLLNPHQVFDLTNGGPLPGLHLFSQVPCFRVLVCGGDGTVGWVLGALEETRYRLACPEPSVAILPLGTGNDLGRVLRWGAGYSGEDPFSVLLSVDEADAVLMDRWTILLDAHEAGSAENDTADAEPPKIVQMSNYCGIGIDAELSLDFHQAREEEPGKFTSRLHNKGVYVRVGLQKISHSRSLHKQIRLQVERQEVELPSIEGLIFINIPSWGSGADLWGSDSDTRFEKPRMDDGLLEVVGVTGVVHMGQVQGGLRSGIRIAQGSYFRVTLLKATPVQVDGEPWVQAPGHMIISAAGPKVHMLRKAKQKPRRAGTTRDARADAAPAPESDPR

DGKθ-GFP-APEX2 [2] = biological target: T1, DGKθ-GFP-APEX2; test: proximity labelling; same APEX2 labelling of rat cortical neurons (DIV21), depolarized and non-depolarized; biotinylated proteins pulled down from the lysate on streptavidin beads, eluates read by Western blot with an antibody to each candidate

Row | Molecule | binding (DGKθ-GFP-APEX2 [1]) | binding (DGKθ-GFP-APEX2 [2])
1 | calcium calmodulin-dependent kinase II alpha (CaMKIIα) (endogenous, rat cortical neurons) (from UniProt P11275 1-478) | binds | binds
2 | heat shock cognate 71 (Hsc70) (endogenous, rat cortical neurons) (from UniProt P63018 1-646) | binds | binds
3 | synaptotagmin-1 (Syt1) (endogenous, rat cortical neurons) (from UniProt P21707 1-421) | binds | binds
4 | syntaxin-binding protein 1 (Munc18-1) (endogenous, rat cortical neurons) (from UniProt P61765 1-594) | binds | binds
5 | B1 | binds | binds
6 | B2 | binds | binds
7 | B3 | binds | binds

Results are given in words; binding and its absence hold for the method and conditions named. In cells and extracts the contact can be indirect. These calls come from enrichment with a bait or labelling near it, and not all partners need be listed. Tags and fused reporters may be left off the sequences shown.
